Results of single-concentration screens

Amino acid sequences for entries named in this document (tags omitted). Residues count along the entry.
UniProt P9WPC5, whole entry: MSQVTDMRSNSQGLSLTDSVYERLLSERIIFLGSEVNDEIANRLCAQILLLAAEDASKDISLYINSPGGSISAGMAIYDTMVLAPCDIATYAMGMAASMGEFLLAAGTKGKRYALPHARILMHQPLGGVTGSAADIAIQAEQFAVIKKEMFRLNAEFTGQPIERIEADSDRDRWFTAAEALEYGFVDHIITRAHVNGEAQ
UniProt P9WPC3, whole entry partner: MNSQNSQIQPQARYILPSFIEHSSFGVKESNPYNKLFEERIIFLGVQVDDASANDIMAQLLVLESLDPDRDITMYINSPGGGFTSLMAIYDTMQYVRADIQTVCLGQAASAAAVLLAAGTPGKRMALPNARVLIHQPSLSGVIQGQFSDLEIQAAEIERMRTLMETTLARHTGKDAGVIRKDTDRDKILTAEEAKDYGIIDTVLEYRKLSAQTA
UniProt P9WNZ1, whole entry: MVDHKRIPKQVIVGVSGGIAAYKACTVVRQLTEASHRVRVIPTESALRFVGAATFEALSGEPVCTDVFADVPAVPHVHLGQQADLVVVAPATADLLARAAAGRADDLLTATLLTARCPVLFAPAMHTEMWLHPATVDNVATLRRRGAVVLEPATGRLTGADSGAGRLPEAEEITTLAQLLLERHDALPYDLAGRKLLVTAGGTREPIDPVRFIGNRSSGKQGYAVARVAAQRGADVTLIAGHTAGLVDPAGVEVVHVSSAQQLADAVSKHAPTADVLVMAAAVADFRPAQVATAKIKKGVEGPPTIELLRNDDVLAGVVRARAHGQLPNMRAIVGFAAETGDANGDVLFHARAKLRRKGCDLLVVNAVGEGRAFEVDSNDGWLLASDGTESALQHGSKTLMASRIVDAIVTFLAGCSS
UniProt A4I591, 1-473: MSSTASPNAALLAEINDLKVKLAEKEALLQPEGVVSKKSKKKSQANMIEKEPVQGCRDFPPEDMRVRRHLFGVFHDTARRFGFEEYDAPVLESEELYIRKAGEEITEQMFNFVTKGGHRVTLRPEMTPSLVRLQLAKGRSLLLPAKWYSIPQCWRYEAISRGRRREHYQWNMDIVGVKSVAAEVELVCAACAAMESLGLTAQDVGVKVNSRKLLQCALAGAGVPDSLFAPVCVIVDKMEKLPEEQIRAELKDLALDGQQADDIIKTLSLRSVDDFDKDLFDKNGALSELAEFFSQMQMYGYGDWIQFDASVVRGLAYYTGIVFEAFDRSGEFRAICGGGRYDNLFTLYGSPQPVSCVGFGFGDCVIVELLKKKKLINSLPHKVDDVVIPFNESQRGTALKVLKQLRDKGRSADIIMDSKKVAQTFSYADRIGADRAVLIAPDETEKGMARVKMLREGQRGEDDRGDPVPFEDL

Source: ChEMBL document CHEMBL3988442, “University of Dundee, Small-Polar-MMV Screening Library” (2021).

ClpP1P2: 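Protease assay of ClpP1P2, read by the AMC dye that it sets free. Target: ClpP1P2, Mycobacterium tuberculosis (UniProt P9WPC5 and UniProt P9WPC3). Compounds at 50 µM. Direction is inferred from only a few compounds that gave an IC50; most scored high, so higher reads as stronger inhibition. Most other retested compounds had strongly negative values. Size under these conditions: about 69,000 compounds, about 10 of them at 50% or above in at least one test.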
CoaBC: 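Coenzyme A biosynthesis protein CoaBC, Mycobacterium tuberculosis (UniProt P9WNZ1). Enzyme assay of CoaBC with a phosphate dye (Biomol Green) read at 650 nm. Tested at 30 µM. Direction is inferred from only a few compounds that gave an IC50; most scored high, so higher reads as stronger inhibition. Most strong results did not repeat in a second test. About 67,000 compounds were tested under these conditions; 0.06% (about 40) showed 50% or more at least once.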
Leishmania in macrophages: 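Cell assay of Leishmania donovani living inside macrophages; the read-out is not stated. Compounds at 30 µM. Higher reads as stronger inhibition (inferred: compounds with an IC50 in retests scored well above the rest). Size under these conditions: about 69,000 compounds, about 1,000 of them at 50% or above in at least one test.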
LiHisRS: 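Enzyme assay of histidyl-tRNA synthetase; the read-out is not stated. Target: Histidine-tRNA ligase, Leishmania infantum (UniProt A4I591). Concentration: 30 µM. Direction is inferred from retests: higher values go with stronger inhibition. The assay is labelled LdHisRS but filed under L. infantum. Of about 69,000 compounds tested this way, about 410 (0.6%) reached 50% or more in at least one test.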

Values are the deposited “Percent Effect”, in %.
How 0% and 100% were set is not recorded. Most values in the screen are low, and negative values occur.
The compounds are a random part of those screened.
Two or more numbers in one place are separate tests of the same structure; such repeats can differ widely.
A dash means the value is not listed here; it may have been measured.

SMILES,ClpP1P2,CoaBC,Leishmania in macrophages,LiHisRS
CN1CCN([C@@H]2CCN(C3CCOC3)[C@H]2Cc2cnn(C)c2)CC1 (stereo partly shown),3.891,5.092,-,5.263
NC(=O)c1ccc(OCC(=O)NS(=O)(=O)c2ccc3c(c2)CCC3)cc1,-5.108,-0.2632,13.31,8.333
CC(C)N1CCC(c2cccc(C(=O)N(C)C)n2)CC1,3.627,3.563,30.08,2.817
CCNC(=O)N1CCc2ccc(NC(=O)C(C)c3ccsc3)cc21 (stereo not shown),-6.316,-5.216,38.81,19.51
N#Cc1ccc(OC2CCN(CC(=O)NCC3CCCO3)CC2)cc1 (stereo not shown),3.715,6.405,-42.93,10.96
O=C(CO)N1CCC(F)(F)C2(CCN(c3ccccc3)C2)C1 (stereo not shown),14.06,12.08,-,23.08
CCc1cnc(N2CC[C@@H]3CN(C(=O)c4ccco4)CCO[C@@H]3C2)nc1,12.35,12.47,-,14.04
Cn1ncc2c(=O)[nH]c(CN(Cc3ccco3)C3CC3)nc21,-1.754,6.839,7.545,20.87
c1ccc(CO[C@H]2CC[C@H]3[C@H]2OCCN3CCN2CCCCC2)nc1,-5.115,4.034,-,-11.5
COc1ccc(CN(Cc2cccnc2)CC2CCCO2)c(OC)c1 (stereo not shown),5.461,-4.922,-,3.65
NC(=O)CSc1ccccc1NCc1nc(Cc2ccccc2)no1,-13.42,0.2475,-14.85,6
[H][C@@]12C[C@H](C)O[C@@]1([H])CCN(C(=O)COC)C2,-,-,21.95,-
COc1ccc(NC(=O)C(c2ccc(OC)cc2)N2CCOCC2)cc1 (stereo not shown),4.798,0.6017,37.82,6.742
CC(C)n1nccc1NC(=O)CN1CCc2sccc2C1,-9.122,4.707,6.304,12.2
Cc1cnn(CC2CCCN2CC(=O)NC2CCOCC2)c1 (stereo not shown),-19.46,-4.198,20.25,6.087
Cc1cc(CN2CCN(CC(O)c3ccc(C)c(C)c3)CC2)no1 (stereo not shown),-30.05,3.15,16.09,1.695
CC(C)(C)CN1CC[C@H](c2nnc(Cc3c[nH]c4ccccc34)o2)C1,3.969,-,-24.48,-5.405
CNc1cncc(C2CCCN2Cc2ccccc2OCC(=O)O)n1 (stereo not shown),-26.55,1.667,11.74,13.89
Cc1nn(C)c(C)c1C1CCCN1C(=O)c1cnc2onc(C)c2c1 (stereo not shown),-31.77,24.09 and 3.608,9.431,8.929
CC1(c2ncc(CN3CCOCC3)cn2)CCCCO1 (stereo not shown),-3.552,-3.874,2.463,13.99
OC(CN1CCOCC1)CN1CCc2c(ncn2C2CC2)C1 (stereo not shown),10.71,1.173,16.06,22.97
COCc1ccc(C(=O)N2CCCN(Cc3cscn3)CC2)cc1,-17.28,-9.115,27.19,5.128
Cc1cnn(C2CN(CC(=O)N(C)Cc3cccs3)C2)c1,-22.66,-1.463,10.98,36.8
COc1cc(CNCC(O)c2ccccc2)cc2c1OCO2 (stereo not shown),-9.122,5.102,-,14.55
COc1ccc(Cl)cc1CC(=O)NS(=O)(=O)c1ccc(C(N)=O)cc1,-4.539,0,3.925,1.923
Cc1cccc(C(=O)N2CCc3c(CN(C)C)nn(C)c3C2)n1,-4.038,7.059,20.64,-10.09
CCc1nc(CN2CCCN(c3cnc4ccccc4n3)CC2)no1,6.878,-0.1218,4.221,29.03
COc1nc2c(cc1C(=O)N(C)Cc1noc3c1CCCC3)CCC2,-8.434,0,5.202,14.58
Cc1cnc(N2CC[C@H]3[C@@H]2CCC(=O)N3c2cccnc2)nc1,-1.875,6.189,-,5.714
COC(C(=O)NC1CCN(S(C)(=O)=O)CC1)c1ccccc1 (stereo not shown),7.473,0.4545,13.08,0
COc1cc(N2C[C@@H]3COC[C@]3(COc3cccnc3)C2)ncn1,13.09,10.54,-,12.03
CCN(CC)CC(=O)N1CCN(CCCc2ccncc2)CC1,-10.12,4.024,-4.993,4.396
NC(=O)CC1CCN(C(=O)c2csc(-c3ccccc3F)n2)CC1,1.872,10.2,21.92,18.75
COc1ccc(CC(C)(O)CNC(=O)Cc2ccc(F)cc2)cc1 (stereo not shown),-1.326,-0.8403,39.78,5.983
CCOC(=O)c1ccc(NC(=O)c2c(O)nc3c(c2O)CCCC3)cc1,-16.56,-6.316,-5.721,11.03
O=C(O)C(F)(F)F.[H][C@@]12CCN(Cc3cnn(C)c3)[C@@]1([H])CCN2C(=O)c1cccc(F)c1,-,-,56.05,-
Cn1c(NCC(O)c2ccc(F)cc2F)c(C#N)c(=O)n(C)c1=O (stereo not shown),-1.75,1.799,31.88,-19.1
O=C(c1ccc(O)c(Cl)c1)N1CCC(c2n[nH]c(C3CC3)n2)CC1,5.634,3.133,-10.33,-2.703
Cc1[nH]ccc1C(=O)N(Cc1ccc(O)cc1)CC1CC1,4.725,-3.415,16.92,-4.202
O=C(CSc1ccc(F)cc1)NS(=O)(=O)c1ccc2c(c1)OCCO2,-10.02,-1.895,8.944,5.66
CN(C)Cc1cccc(-c2cccnc2C(=O)NCc2ccco2)c1,-12.55,3.148,16.35,4.196
CN(C(=O)C(c1c(F)cccc1Cl)N(C)C)c1nccs1 (stereo not shown),-6.858,3.823,-23.73,17.95
Cc1cc2cc(C(=O)N[C@@H]3CC[C@@H](N4CCOCC4)[C@@H]3O)ccc2o1,8.32,-3.611,2.778,16.67
Cn1cc(-c2cnc(N3CCOCC3)nc2)cc1C(=O)NCCC#N.O=C(O)C(F)(F)F,-,-,12.83,-

Some entries from above, unchanged:

- O=C(CSc1ccc(F)cc1)NS(=O)(=O)c1ccc2c(c1)OCCO2 : ClpP1P2: -10.02%; CoaBC: -1.895%; Leishmania in macrophages: 8.944%; LiHisRS: 5.66%
- COc1ccc(CC(C)(O)CNC(=O)Cc2ccc(F)cc2)cc1 (stereo not shown) : ClpP1P2: -1.326%; CoaBC: -0.8403%; Leishmania in macrophages: 39.78%; LiHisRS: 5.983%